These are yes or no findings as the source states them, for the method shown. Tags and fused reporters may be left off the sequences shown.

Chains of the proteins cited; added tags and fusions are not shown.
UniProt P10565: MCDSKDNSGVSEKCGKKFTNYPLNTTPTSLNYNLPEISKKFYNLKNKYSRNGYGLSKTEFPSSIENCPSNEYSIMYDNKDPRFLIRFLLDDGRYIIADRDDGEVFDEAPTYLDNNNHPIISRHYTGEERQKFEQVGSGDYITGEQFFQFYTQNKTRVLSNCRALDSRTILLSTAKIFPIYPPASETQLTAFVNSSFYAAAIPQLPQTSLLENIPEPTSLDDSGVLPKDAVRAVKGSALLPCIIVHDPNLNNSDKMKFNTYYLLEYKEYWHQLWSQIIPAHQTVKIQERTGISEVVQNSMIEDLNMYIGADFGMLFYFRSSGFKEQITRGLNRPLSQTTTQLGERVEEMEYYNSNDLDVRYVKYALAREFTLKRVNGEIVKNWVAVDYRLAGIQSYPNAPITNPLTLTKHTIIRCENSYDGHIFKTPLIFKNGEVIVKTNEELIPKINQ

Test [1] has as its target BinB protoxin (pro-B), His-tagged (Lysinibacillus sphaericus) (UniProt P10565). The test can be described thus: static light scattering (SLS); Zetasizer Nano-ZS, 25°C, Debye plot, 0.05 to 1.2 mg/mL, 50 mM Tris-HCl pH 9.0, 50 mM NaCl, 1 mM DTT; both purified.
The target is the same in test [2]. The test can be described thus: condition: 60 μM before and 18 μM after chromatography (total monomer); SEC; Superdex 200 HR 10/30, 50 mM Tris-HCl pH 9.0, 50 mM NaCl, 1 mM DTT; subunits alone or mixed 1:1, incubated 15 min at room temperature; typically 60 μM before and 18 μM after chromatography (total monomer); eluted band checked by SDS-PAGE and MALDI-TOF; both purified.

The target is the same in test [3]. Nature of the test: dynamic light scattering (DLS); Zetasizer Nano-ZS, 25°C, particle size distribution by number, 50 mM Tris-HCl pH 9.0, 50 mM NaCl, 1 mM DTT; both purified.
For test [4], the target named is BinA protoxin (pro-A), His-tagged (Lysinibacillus sphaericus) (UniProt P06575). Nature of the test: static light scattering (SLS); Zetasizer Nano-ZS, 25°C, Debye plot, 0.05 to 1.2 mg/mL, 50 mM Tris-HCl pH 9.0, 50 mM NaCl, 1 mM DTT; both purified.
The target is the same in test [5]. The test can be described thus: condition: 60 μM before and 18 μM after chromatography (total monomer); SEC; Superdex 200 HR 10/30, 50 mM Tris-HCl pH 9.0, 50 mM NaCl, 1 mM DTT; subunits alone or mixed 1:1, incubated 15 min at room temperature; typically 60 μM before and 18 μM after chromatography (total monomer); eluted band checked by SDS-PAGE and MALDI-TOF; both purified.

The target is the same in test [6]. Nature of the test: dynamic light scattering (DLS); Zetasizer Nano-ZS, 25°C, particle size distribution by number, 50 mM Tris-HCl pH 9.0, 50 mM NaCl, 1 mM DTT; both purified.

In the case of “BinB protoxin (pro-B), His-tagged (from UniProt P10565 1-448)”, the binding entry in test [1] is given as “no binding (tested: 0.05 to 1.2 mg/mL)”; in test [2], “no binding”; in test [3] it was “no binding”.

B1: BinA protoxin (pro-A), His-tagged (protein, UniProt P06575 7-370)
chain: IDSFIPTEGKYIRVMDFYNSEYPFCIHAPSAPNGDIMTEICSRENNQYFIFFPTDDGRVIIANRHNGSVFTGEATSVVSDIYTGSPLQFFREVKRTMATYYLAIQNPESATDVRALEPHSHELPSRLYYTNNIENNSNILISNKEQIYLTLPSLPENEQYPKTPVLSGIDDIGPNQSEKSIIGSTLIPCIMVSDFISLGERMKTTPYYYVKHTQYWQSMWSALFPPGSKETKTEKSGITDTSQISMTDGINVSIGADFGLRFGNKTFGIKGGFTYDTKTQITNTSQLLIETTYTREYTNTENFPVRYTGYVLASEFTLHRSDGTQVNTIPWVALNDNYTTIARYPHFASEPLLGNTKIITDDQN
On to B1, for which the binding entry is recorded as “no binding (tested: 0.05 to 1.2 mg/mL)” in test [1]; “no binding (tested: 0.05 to 1.2 mg/mL)” in test [4]; “no binding” in test [2]; “no binding” in test [5]; “no binding” in test [3]; “no binding” in test [6].

Values taken from publication PMC4920411, “Binary Toxin Subunits of Lysinibacillus sphaericus Are Monomeric and Form Heterodimers after In Vitro Activation” (PLoS ONE, 2016).
